In the supplement of paper PMC4962491:
± gives the standard deviation of the averaged measurements. The entries are a selection whose mix differs from that of the whole data set. This data set is noisy: repeats of one test often differ as much as different tests do.

Test system: FaDu
Assay: mitochondrial oxygen consumption rate normalised to cell number, Z score over the library; higher = higher oxygen consumption (negative = OCR reduction)
Conditions: treatment time 24 h, assay medium: 5 mM galactose, 5 mM pyruvate, 4 mM glutamine
Method: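 Primary screen: FaDu cells were incubated 24 h with Pharmakon 1600 / TDI oncology set compounds at 2 or 10 uM. Mitochondrial-specific OCR (basal minus 2 uM antimycin A) was measured on a Seahorse XF96 in assay medium with 5 mM galactose, 5 mM pyruvate and 4 mM glutamine, then corrected for Hoechst cell number and expressed as a Z score […]. Compounds that cut cell number by >66% were excluded. Two repeats.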

Row | SMILES | mitochondrial oxygen consumption rate normalised (2 µM) | mitochondrial oxygen consumption rate normalised (10 µM)
1 | CNC(=C[N+](=O)[O-])NCCSCc1csc(CN(C)C)n1 | 0.614 ± 0.48 | –
2 | CS(=O)(=O)Nc1ccc([N+](=O)[O-])cc1Oc1ccccc1 | 0.154 ± 0.38 | 0.196 ± 0.72
3 | CCn1cc(C(=O)O)c(=O)c2cc(F)c(N3CCNC(C)C3)c(F)c21 (stereo not given) | 0.566 ± 0.04 | –
4 | C[C@]12C=CC(=O)C=C1CC[C@@H]1[C@@H]2C(=O)C[C@@]2(C)[C@H]1CC[C@]2(O)C(=O)CO | -0.286 ± 0.23 | –
5 | CCOC(=O)CCC(=O)O[C@H]1[C@H](O[C@@H]2[C@@H](C)[C@H](O[C@H]3C[C@@](C)(OC)[C@@H](O)[C@H](C)O3)[C@@H](C)C(=O)O[C@H](CC)[C@@](C)(O)[C@H](O)[C@@H](C)C(=O)[C@H](C)C[C@@]2(C)O)O[C@H](C)C[C@@H]1N(C)C | -0.682 ± 0.32 | –
6 | C[C@@H]1O[C@@H]1P(=O)(O)O | 0.19 ± 0.14 | 0.794 ± 0.12
7 | C[C@@H]1CN(c2c(F)c(N)c3c(=O)c(C(=O)O)cn(C4CC4)c3c2F)C[C@H](C)N1 | -0.469 ± 0.24 | –
8 | Cc1ccc(S(=O)(=O)NCl)cc1 | -0.196 ± 0.28 | –
9 | CCn1cc(C(=O)O)c(=O)c2cc(F)c(N3CCN(C)CC3)cc21 | -0.569 ± 0.91 | –
10 | Nc1nc(N)c2nc(CNc3ccc(C(=O)N[C@@H](CCC(=O)O)C(=O)O)cc3)cnc2n1 | 1.11 ± 0.33 | –
11 | CC(C(=O)O)c1cccc(C(=O)c2ccccc2)c1 (stereo not given) | 0.337 ± 0.37 | –
12 | O=NN(CCCl)C(=O)NCCCl [Carmustine] | -0.466 ± 0.76 | –
13 | O=NN(CCCl)C(=O)NCCCl | 0.71 ± 0.3 | –
14 | CCOC(=O)c1ncn2c1CN(C)C(=O)c1cc(F)ccc1-2 | -0.713 ± 0.15 | –
15 | CCCC1O[C@@H]2C[C@H]3[C@@H]4CCC5=CC(=O)C=C[C@]5(C)[C@H]4[C@@H](O)C[C@]3(C)[C@]2(C(=O)CO)O1 (stereo not given in full) | 0.0867 ± 0.041 | –
16 | CCCCC(CC)COC(=O)C=Cc1ccc(OC)cc1 (stereo not given) | 0.887 ± 0.026 | –
17 | COc1ccc2[nH]c([S@@+]([O-])Cc3ncc(C)c(OC)c3C)nc2c1 | 0.152 ± 0.76 | –
18 | CC(C)NCC(O)c1ccc(O)c(O)c1 (stereo not given) | -0.62 ± 0.7 | –
19 | CCCCCN(CCCCC)C(=O)C(CCC(=O)O)NC(=O)c1ccc(Cl)c(Cl)c1 (stereo not given) | -0.621 ± 0.4 | –
20 | Nc1nc2c(ncn2COCCO)c(=O)[nH]1 | 0.274 ± 3 | –
21 | COc1ccc(C(=O)CC(=O)c2ccc(C(C)(C)C)cc2)cc1 | 0.974 ± 0.23 | –

Row | SMILES | mitochondrial oxygen consumption rate normalised (2 µM) | mitochondrial oxygen consumption rate normalised (10 µM)
22 | COc1ccc(C(=O)c2ccccc2)c(O)c1 | -0.072 ± 0.5 | –
23 | COc1c(N2C[C@@H]3CCCN[C@@H]3C2)c(F)cc2c(=O)c(C(=O)O)cn(C3CC3)c12 | 0.253 ± 0.95 | –
24 | COc1ncnc(NS(=O)(=O)c2ccc(N)cc2)c1OC | -0.102 ± 0.3 | –
25 | CC(=O)OCC(=O)[C@@]1(O)[C@H](C)C[C@H]2[C@@H]3CCC4=CC(=O)C=C[C@]4(C)[C@@]3(F)[C@@H](O)C[C@@]21C | 0.233 ± 1.1 | –
26 | CCOc1cc(CC(=O)N[C@@H](CC(C)C)c2ccccc2N2CCCCC2)ccc1C(=O)O | 0.571 ± 0.23 | –
27 | C#C[C@]1(O)CC[C@H]2[C@@H]3CCc4cc(O)ccc4[C@H]3CC[C@@]21C | 0.64 ± 0.083 | –
28 | Nc1c2c(nc3ccccc13)CCCC2 | -0.909 ± 0.74 | –
29 | CCCCC(CC)COC(=O)C(C#N)=C(c1ccccc1)c1ccccc1 (stereo not given) | 0.0928 ± 0.67 | –
30 | C/C(=C(\CCOP(=O)(O)O)SC(=O)c1ccccc1)N(C=O)Cc1cnc(C)nc1N | -0.483 ± 0.22 | –
31 | COc1cc2/c(=N/c3ccc(Br)cc3F)nc[nH]c2cc1OCC1CCN(C)CC1 [vandetanib] | 0.386 ± 0.15 | 0.909 ± 1.7
32 | CN(Cc1cnc2nc(N)nc(N)c2n1)c1ccc(C(=O)NC(CCC(=O)O)C(=O)O)cc1 (racemic) | 0.477 ± 0.22 | –
33 | C=C[C@@]1(C)CC(=O)[C@]2(O)[C@@]3(C)[C@@H](O)CCC(C)(C)[C@@H]3[C@H](O)[C@H](OC(C)=O)[C@@]2(C)O1 | 1.98 ± 1.1 | –
34 | CCN(CC)C(=S)SSC(=S)N(CC)CC | 0.398 ± 0.74 | –
35 | CCN(CC)CCOc1ccc2c(c1)C(=O)c1cc(OCCN(CC)CC)ccc1-2 | 0.568 ± 0.32 | –
36 | CC1(C)O[C@@H]2C[C@H]3[C@@H]4CCC5=CC(=O)C=C[C@]5(C)[C@H]4[C@@H](O)C[C@]3(C)[C@]2(C(=O)CO)O1 | -0.0372 ± 0.08 | –
37 | O=C(CCCCCCC(=O)Nc1ccccc1)NO [Vorinostat] | 0.301 ± 0.12 | –
38 | CC[C@H]1OC(=O)C[C@@H](O)[C@H](C)[C@@H](O[C@@H]2O[C@H](C)[C@@H](O[C@H]3C[C@@](C)(O)[C@@H](O)[C@H](C)O3)[C@H](N(C)C)[C@H]2O)[C@@H](CC=O)C[C@@H](C)C(=O)/C=C/C(C)=C/[C@@H]1CO[C@@H]1O[C@H](C)[C@@H](O)[C@@H](OC)[C@H]1OC | -0.143 ± 0.84 | –
39 | Cc1cc(NS(=O)(=O)c2ccc(N)cc2)no1 | -0.664 ± 0.2 | –
40 | CN[C@@H]1[C@@H](O)[C@@H](O[C@@H]2[C@@H](O)[C@H](O[C@H]3OC(CN)=CC[C@H]3N)[C@@H](N)C[C@H]2N)OC[C@]1(C)O | -0.364 ± 0.27 | –
41 | CC1(C)S[C@@H]2[C@H](NC(=O)[C@H](C(=O)O)c3ccsc3)C(=O)N2[C@H]1C(=O)O | -0.349 ± 0.39 | –
42 | CC1(O)CCC(C(C)(C)O)CC1 (stereo not given) | 0.805 ± 0.097 | –

Quoted from the listing.
For mitochondrial oxygen consumption rate normalised (2 µM), Nc1c2c(nc3ccccc13)CCCC2 reads -0.909 ± 0.74
For mitochondrial oxygen consumption rate normalised (2 µM), CC1(O)CCC(C(C)(C)O)CC1 (stereo not given) reads 0.805 ± 0.097
For mitochondrial oxygen consumption rate normalised (2 µM), CN[C@@H]1[C@@H](O)[C@@H](O[C@@H]2[C@@H](O)[C@H](O[C@H]3OC(CN)=CC[C@H]3N)[C@@H](N)C[C@H]2N)OC[C@]1(C)O reads -0.364 ± 0.27

The results go on:

Row | SMILES | mitochondrial oxygen consumption rate normalised (2 µM) | mitochondrial oxygen consumption rate normalised (10 µM)
43 | CCOC(=O)n1ccn(C)c1=S | 0.395 ± 1.4 | –
44 | O=C1CN(/N=C/c2ccc(-c3ccc([N+](=O)[O-])cc3)o2)C(=O)N1 | -0.53 ± 0.31 | –
45 | CC1(C)S[C@@H]2[C@H](NC(=O)C(C(=O)O)c3ccccc3)C(=O)N2[C@H]1C(=O)O (stereo not given in full) | 0.646 ± 0.22 | –
46 | CCN(CC)CCOC(=O)C(Cc1cccc2ccccc12)CC1CCCO1 (stereo not given) | 0.0429 ± 0.27 | –
47 | C[C@H](N)[C@H](O)c1cccc(O)c1 | 0.85 ± 0.24 | –
48 | O=C1CN(/N=C/c2ccc([N+](=O)[O-])o2)C(=O)N1 | -0.0226 ± 0.16 | –
49 | Cc1ccccc1OCC(O)CO (stereo not given) | 0.785 ± 0.15 | –
50 | CC(C)(C)C(=O)C(Oc1ccc(Cl)cc1)n1ccnc1 (stereo not given) | 0.244 ± 0.014 | –
51 | C[C@H](Cn1cnc2c(N)ncnc21)OCP(=O)(O)O | -0.543 ± 0.55 | 0.449 ± 0.26
52 | CCCCNc1cc(C(=O)O)cc(S(N)(=O)=O)c1Oc1ccccc1 | 0.958 ± 1.7 | –
53 | CC(C)n1c(/C=C/C(O)CC(O)CC(=O)O)c(-c2ccc(F)cc2)c2ccccc21 (stereo not given) | 0.166 ± 0.55 | –
54 | Cc1ccnc(NS(=O)(=O)c2ccc(N)cc2)n1 | -0.603 ± 0.36 | –
55 | [O-][n+]1cccc(CO)c1 | 0.51 ± 0.21 | –
56 | COc1ccc(C[C@H](N)C(=O)N[C@H]2[C@@H](O)[C@H](n3cnc4c(N(C)C)ncnc43)O[C@@H]2CO)cc1 | -1.19 ± 0.79 | –
57 | CCCCC/C=C/CCC(=O)N[C@H]1[C@H](Oc2c3cc4cc2Oc2ccc(cc2Cl)[C@@H](O[C@@H]2O[C@H](CO)[C@@H](O)[C@H](O)[C@H]2NC(C)=O)[C@@H]2NC(=O)[C@H](NC(=O)[C@@H]4NC(=O)[C@H]4NC(=O)C(Cc5ccc(c(Cl)c5)O3)NC(=O)[C@H](N)c3ccc(O)c(c3)Oc3cc(O)cc4c3)c3ccc(O)c(c3)-c3c(OC4O[C@H](CO)[C@@H](O)[C@H](O)[C@@H]4O)cc(O)cc3[C@@H](C(=O)O)NC2=O)O[C@H](CO)[C@@H](O)[C@@H]1O (stereo not given in full) [TEICOPLANIN [A(2-1) shown]] | 0.128 ± 0.35 | 1.41 ± 0.64
58 | CNC[C@H](O)[C@@H](O)[C@H](O)[C@H](O)CO | 0.169 ± 0.6 | –
59 | Nc1ccc(S(=O)(=O)Nc2cnc3ccccc3n2)cc1 | 0.447 ± 0.89 | –
60 | NCCCC(O)(P(=O)(O)O)P(=O)(O)O | 0.331 ± 0.84 | –
61 | CC(C)CCCC(C)N (stereo not given) | 0.1746 ± 0.0017 | –
62 | COc1cc(C2Oc3cc([C@H]4Oc5cc(O)cc(O)c5C(=O)[C@@H]4O)ccc3OC2CO)ccc1O (stereo not given in full) | 0.728 ± 0.82 | –
63 | CC(=O)O[C@H]1C[C@@]2(C)[C@@H](C[C@@H](O)[C@H]3[C@@]4(C)CC[C@@H](O)[C@@H](C)[C@@H]4CC[C@@]32C)/C1=C(\CCC=C(C)C)C(=O)O | -1.32 ± 1 | –

Row | SMILES | mitochondrial oxygen consumption rate normalised (2 µM) | mitochondrial oxygen consumption rate normalised (10 µM)
64 | CC(=O)N[C@@H](CS)C(=O)O | -0.912 ± 0.52 | –
65 | CC[C@H](C)C(=O)O[C@H]1C[C@@H](C)C=C2C=C[C@H](C)[C@H](CC[C@@H]3C[C@@H](O)CC(=O)O3)[C@H]21 | -1.01 ± 0.61 | –
66 | CCN(CC)CCOC(=O)c1ccc(N)cc1 | 0.318 ± 0.53 | –
67 | CC(=O)O[C@H]1C[C@@H]2CC[C@@H]3[C@H](CC[C@@]4(C)[C@H]3C[C@H]([N+]3(C)CCCCC3)[C@@H]4OC(C)=O)[C@@]2(C)C[C@@H]1N1CCCCC1 | -0.36 ± 0.069 | –
68 | Cc1cc(C)cc(OCC2CNC(=O)O2)c1 (stereo not given) | -0.13 ± 1.2 | –
69 | C[C@@H](O)[C@H]1C(=O)N2C(C(=O)O)=C(S[C@@H]3CN[C@H](C(=O)N(C)C)C3)[C@H](C)[C@H]12 | 1.13 ± 0.24 | –
70 | C[C@@H]1O[C@@H](OC[C@H]2O[C@@H](Oc3c(-c4ccc(OCCO)c(OCCO)c4)oc4cc(OCCO)cc(O)c4c3=O)[C@H](O)[C@@H](O)[C@@H]2O)[C@H](O)[C@H](O)[C@H]1O | 0.345 ± 0.4 | –
71 | CCN(CC)C(=O)/C(C#N)=C/c1cc(O)c(O)c([N+](=O)[O-])c1 | -0.313 ± 1.1 | –
72 | C[C@]12C=CC(=O)C=C1CC[C@H]1[C@@H]3C[C@@H](O)[C@](O)(C(=O)CO)[C@@]3(C)C[C@H](O)[C@@]12F | 0.298 ± 0.43 | –
73 | CC[C@H]1OC(=O)C[C@@H](O)[C@H](C)[C@@H](O[C@@H]2O[C@H](C)[C@@H](O)[C@H](N(C)C)[C@H]2O)[C@@H](CCN2C[C@H](C)C[C@H](C)C2)C[C@@H](C)C(=O)/C=C/C(C)=C/[C@@H]1CO[C@@H]1O[C@H](C)[C@@H](O)[C@@H](OC)[C@H]1OC | -0.426 ± 0.67 | 0.2667 ± 0.0014
74 | CNCCCC12CCC(c3ccccc31)c1ccccc12 | 0.341 ± 0.52 | –
75 | OC(c1cc(C(F)(F)F)nc2c(C(F)(F)F)cccc12)C1CCCCN1 (stereo not given) | 0.469 ± 0.39 | –
76 | CCCCCC(=O)O[C@]1(C(C)=O)CC[C@H]2[C@@H]3CCC4=CC(=O)CC[C@]4(C)[C@H]3CC[C@@]21C | -0.203 ± 1.1 | –
77 | CCN1CCCC(OC(=O)C(c2ccccc2)c2ccccc2)C1 (stereo not given) | -0.175 ± 0.86 | –
78 | CCCCCNC(=N)N/N=C/c1c[nH]c2ccc(OC)cc12 | 0.423 ± 0.075 | –
79 | O=C(Oc1ccccc1C(=O)O)c1ccccc1O | 0.0702 ± 0.61 | –
80 | O=C(O)c1ccc(S(=O)(=O)N(Cl)Cl)cc1 | -1.06 ± 0.76 | –
81 | COc1c(C)c2c(c(O)c1C/C=C(\C)CCC(=O)O)C(=O)OC2 | 0.427 ± 0.05 | –
82 | NCCNCCNCCN | -0.16 ± 0.46 | –
83 | CN(C/C=C/c1ccccc1)Cc1cccc2ccccc12 | -0.368 ± 0.18 | –
84 | CC(=O)CCCCn1c(=O)c2c(ncn2C)n(C)c1=O | -0.145 ± 0.96 | –
